Record: PubChem BioAssay AID1259254 (NCATS, 2017)
Test: 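Gene knock-downs that lead to re-replication, shown by excess G2 DNA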 (primary screen). Cells: human HCT116 colorectal cancer cells. Reagents: single siRNA against human genes. Duration: 3 days. Measured: 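Nuclei stained with Hoechst and imaged; cell-cycle phase assigned by DNA content; G2 share scaled per plate, non-targeting siRNA 0%, GMNN siRNA 100%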. Scale: G2 robust z-score and G2 cells, % of GMNN control: higher = more G2 cells, more excess DNA replication. Active means: 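An siRNA counts as active if its G2 robust z-score lies at least 5 MADs above the screen median; here such calls match roughly 38% of GMNN control or more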.
The deposit covers about 59,000 reagents; shown is a random part of them. About 1,550 of them (2.6%) were called active. 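G2 share is only a proxy for re-replication; each gene was hit by three separate siRNAs, and active genes were retested.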 A number with no mark means an inactive call. Reagents against one gene are numbered here. Further read-outs or replicates are left out here. Not given: the amount of reagent.

FANCD2 #1 gave G2 robust z-score 2.78; G2 cells, % of GMNN control 22.5.
Knock-down of FANCD2 #2 gave: G2 robust z-score 5.78 (active); G2 cells, % of GMNN control 43.7.
After knock-down of FANCD2 #3 the results were G2 robust z-score -0.872; G2 cells, % of GMNN control -3.17.
After knock-down of ZNF682 #1, the screen gave G2 robust z-score -1.06; G2 cells, % of GMNN control -4.5.
After knock-down of ZNF682 #2, the screen gave G2 robust z-score -0.355; G2 cells, % of GMNN control 0.472.
Against ZNF682 #3, the values are G2 robust z-score -0.326; G2 cells, % of GMNN control 0.672.
Silencing of RANBP1P1 #1 gave: G2 robust z-score 1.78; G2 cells, % of GMNN control 15.5.
For RANBP1P1 #2, the values are G2 robust z-score 0.789; G2 cells, % of GMNN control 8.52.
Against RANBP1P1 #3 the deposit lists G2 robust z-score 2.35; G2 cells, % of GMNN control 19.5.
Against OVCH1 #1, the entry reads G2 robust z-score -0.638; G2 cells, % of GMNN control -1.52.
OVCH1 #2 showed G2 robust z-score -0.138; G2 cells, % of GMNN control 1.99.
Silencing of OVCH1 #3 resulted in: G2 robust z-score -1.08; G2 cells, % of GMNN control -4.6.
Silencing of C4orf17 #1 resulted in: G2 robust z-score 1.21; G2 cells, % of GMNN control 11.5.
Silencing of C4orf17 #2 came out at: G2 robust z-score -0.851; G2 cells, % of GMNN control -3.02.
Depletion of C4orf17 #3 gave: G2 robust z-score -0.74; G2 cells, % of GMNN control -2.24.
For GNS #1 the deposit lists G2 robust z-score -0.372; G2 cells, % of GMNN control 0.353.
Against GNS #2, the values are G2 robust z-score -0.756; G2 cells, % of GMNN control -2.35.
Depletion of GNS #3 came out at: G2 robust z-score -0.587; G2 cells, % of GMNN control -1.16.
Against TOPORS #1, the values are G2 robust z-score -1.21; G2 cells, % of GMNN control -5.53.
Against TOPORS #2, the entry reads G2 robust z-score 0.394; G2 cells, % of GMNN control 5.74.
After knock-down of TOPORS #3, the screen gave G2 robust z-score -1.57; G2 cells, % of GMNN control -8.09.
After knock-down of PFN2 #1 the results were G2 robust z-score -0.39; G2 cells, % of GMNN control 0.224.
With knock-down of PFN2 #2, the screen gave G2 robust z-score 0.745; G2 cells, % of GMNN control 8.21.
With knock-down of PFN2 #3, the record shows G2 robust z-score 0.632; G2 cells, % of GMNN control 7.42.

Not a retest: 2 of the entries above.
FANCD2 #3 — G2 robust z-score: -0.872; G2 cells, % of GMNN control: -3.17
ZNF682 #1 — G2 robust z-score: -1.06; G2 cells, % of GMNN control: -4.5
